The supplement of paper PMC8426693
The list shows a part of the results.

Assays:
Experiment in all cases: NMR binding call after quantification (hit when 2 of 3 NMR criteria are met) (binary (1 = binding, 0 = not binding)); higher = binding
Conditions in all cases: RNA concentration 10 µM; fragment concentration 200 µM; 293 K
SARS-CoV-2 5_SL7 RNA = test system: SARS-CoV-2 5_SL7 RNA
SARS-CoV-2 5_SL8 RNA = test system: SARS-CoV-2 5_SL8 RNA
[1] = test system: SARS-CoV-2 attenuator hairpin (att HP) RNA
[2] = test system: SARS-CoV-2 frameshift pseudoknot (PK) RNA

Measured: NMR binding call

Cc1noc(C)c1C(=O)NCCC1=CCCCC1
0: SARS-CoV-2 5_SL7 RNA | SARS-CoV-2 5_SL8 RNA | [1] | [2]

CN(C)Cc1ccc(C#N)cc1
0: SARS-CoV-2 5_SL7 RNA | SARS-CoV-2 5_SL8 RNA | [1] | [2]

CCC(CC)C(=O)Nc1ccccc1O
0: SARS-CoV-2 5_SL7 RNA | SARS-CoV-2 5_SL8 RNA | [1] | [2]

CC(O)CNCc1c(Cl)cccc1Cl (centres undefined)
0: SARS-CoV-2 5_SL7 RNA | SARS-CoV-2 5_SL8 RNA | [1] | [2]

CN(C(=O)C1CCNC1)c1ccccc1.Cl (centres undefined)
0: SARS-CoV-2 5_SL7 RNA | SARS-CoV-2 5_SL8 RNA | [1] | [2]

CNC(=O)c1ccc(S(N)(=O)=O)cc1
0: SARS-CoV-2 5_SL7 RNA | SARS-CoV-2 5_SL8 RNA | [1] | [2]

Fc1ccccc1NCc1cc[nH]n1
0: SARS-CoV-2 5_SL7 RNA | SARS-CoV-2 5_SL8 RNA | [1] | [2]

Cc1ccc(CN2CCS(=O)(=O)CC2)cc1
0: SARS-CoV-2 5_SL7 RNA | SARS-CoV-2 5_SL8 RNA | [1] | [2]

CCC(=O)Nc1nnc(C2CCCCC2)s1
0: SARS-CoV-2 5_SL7 RNA | SARS-CoV-2 5_SL8 RNA | [1] | [2]

CC(c1ccccc1F)N1CCNCC1.Cl.Cl (centres undefined)
0: SARS-CoV-2 5_SL7 RNA | SARS-CoV-2 5_SL8 RNA | [1] | [2]

CC(=O)N1CCC(c2c[nH]c3ccccc23)CC1
0: SARS-CoV-2 5_SL7 RNA | SARS-CoV-2 5_SL8 RNA | [1] | [2]

Cc1cc(C)nc(NC(=O)Nc2ccccc2)c1
0: SARS-CoV-2 5_SL7 RNA | SARS-CoV-2 5_SL8 RNA | [1] | [2]

Cc1nccn1Cc1cccc(C#N)c1
0: SARS-CoV-2 5_SL7 RNA | SARS-CoV-2 5_SL8 RNA | [1] | [2]

CC1CNCCN1CCO (centres undefined)
0: SARS-CoV-2 5_SL7 RNA | SARS-CoV-2 5_SL8 RNA | [1] | [2]

C1CC(CNC2CC2)CO1 (centres undefined)
0: SARS-CoV-2 5_SL7 RNA | SARS-CoV-2 5_SL8 RNA | [1] | [2]

Not a retest: two of the compounds above.
CC(c1ccccc1F)N1CCNCC1.Cl.Cl (centres undefined)
0: SARS-CoV-2 5_SL7 RNA | SARS-CoV-2 5_SL8 RNA | [1] | [2]

CC(=O)N1CCC(c2c[nH]c3ccccc23)CC1
0: SARS-CoV-2 5_SL7 RNA | SARS-CoV-2 5_SL8 RNA | [1] | [2]

The results go on:

Cc1cccc(NC(=O)C2CCCN2)n1 (centres undefined)
0: SARS-CoV-2 5_SL7 RNA | SARS-CoV-2 5_SL8 RNA | [1] | [2]
